# This is one part of the list.
# By UniProt entry, the sequences of proteins in these tests, tags left out. Where a name states a change or a piece, a line headed by the entry shows the natural chain unless it says otherwise.
# UniProt P53367: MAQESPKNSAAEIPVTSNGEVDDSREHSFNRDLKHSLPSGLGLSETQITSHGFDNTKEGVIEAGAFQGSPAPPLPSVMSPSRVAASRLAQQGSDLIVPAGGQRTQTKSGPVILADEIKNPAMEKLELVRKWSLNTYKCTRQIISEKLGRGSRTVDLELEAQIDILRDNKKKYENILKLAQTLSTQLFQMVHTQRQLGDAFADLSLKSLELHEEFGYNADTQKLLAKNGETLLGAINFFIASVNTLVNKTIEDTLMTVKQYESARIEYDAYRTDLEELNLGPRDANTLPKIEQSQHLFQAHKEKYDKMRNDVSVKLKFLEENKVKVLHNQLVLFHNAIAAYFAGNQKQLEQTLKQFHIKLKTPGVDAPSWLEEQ
# UniProt Q8IUR7, whole entry: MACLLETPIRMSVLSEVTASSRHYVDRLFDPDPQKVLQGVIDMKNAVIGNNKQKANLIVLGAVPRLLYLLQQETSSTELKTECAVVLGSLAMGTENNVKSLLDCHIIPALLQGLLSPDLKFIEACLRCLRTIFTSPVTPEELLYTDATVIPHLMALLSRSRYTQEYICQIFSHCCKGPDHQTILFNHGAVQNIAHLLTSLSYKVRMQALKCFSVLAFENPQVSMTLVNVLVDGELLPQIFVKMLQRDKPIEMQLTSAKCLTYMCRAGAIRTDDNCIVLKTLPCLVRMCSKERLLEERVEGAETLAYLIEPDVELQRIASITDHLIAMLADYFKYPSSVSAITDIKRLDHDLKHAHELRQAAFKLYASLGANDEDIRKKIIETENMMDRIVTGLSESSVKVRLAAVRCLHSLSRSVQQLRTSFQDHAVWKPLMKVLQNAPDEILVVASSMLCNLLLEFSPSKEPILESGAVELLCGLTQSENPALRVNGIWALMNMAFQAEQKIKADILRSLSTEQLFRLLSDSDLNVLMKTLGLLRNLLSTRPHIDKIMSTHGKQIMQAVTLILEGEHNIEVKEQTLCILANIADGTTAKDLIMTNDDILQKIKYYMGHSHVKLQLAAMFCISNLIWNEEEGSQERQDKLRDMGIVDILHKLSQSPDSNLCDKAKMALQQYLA
# UniProt Q9UNA1: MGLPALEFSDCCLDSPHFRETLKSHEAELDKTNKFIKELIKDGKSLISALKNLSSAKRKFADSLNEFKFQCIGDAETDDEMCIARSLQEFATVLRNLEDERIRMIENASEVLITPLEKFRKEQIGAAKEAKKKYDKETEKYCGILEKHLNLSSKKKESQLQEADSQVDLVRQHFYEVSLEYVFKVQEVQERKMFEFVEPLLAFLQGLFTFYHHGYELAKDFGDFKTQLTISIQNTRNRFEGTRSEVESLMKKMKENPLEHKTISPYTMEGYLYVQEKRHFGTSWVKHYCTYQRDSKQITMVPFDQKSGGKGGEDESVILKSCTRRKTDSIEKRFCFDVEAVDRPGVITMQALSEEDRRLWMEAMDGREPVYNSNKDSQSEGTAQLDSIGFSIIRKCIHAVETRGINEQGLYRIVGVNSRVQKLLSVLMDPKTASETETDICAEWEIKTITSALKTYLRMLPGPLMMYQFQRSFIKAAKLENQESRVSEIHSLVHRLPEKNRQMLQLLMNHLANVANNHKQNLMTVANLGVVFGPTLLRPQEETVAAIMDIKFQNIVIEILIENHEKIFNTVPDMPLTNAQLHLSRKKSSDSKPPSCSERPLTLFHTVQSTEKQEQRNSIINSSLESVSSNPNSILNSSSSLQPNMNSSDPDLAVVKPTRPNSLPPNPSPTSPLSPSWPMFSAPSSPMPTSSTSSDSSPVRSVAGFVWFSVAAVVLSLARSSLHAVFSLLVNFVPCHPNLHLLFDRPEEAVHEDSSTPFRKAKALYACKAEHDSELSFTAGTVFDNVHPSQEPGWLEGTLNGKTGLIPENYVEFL
# UniProt P13798: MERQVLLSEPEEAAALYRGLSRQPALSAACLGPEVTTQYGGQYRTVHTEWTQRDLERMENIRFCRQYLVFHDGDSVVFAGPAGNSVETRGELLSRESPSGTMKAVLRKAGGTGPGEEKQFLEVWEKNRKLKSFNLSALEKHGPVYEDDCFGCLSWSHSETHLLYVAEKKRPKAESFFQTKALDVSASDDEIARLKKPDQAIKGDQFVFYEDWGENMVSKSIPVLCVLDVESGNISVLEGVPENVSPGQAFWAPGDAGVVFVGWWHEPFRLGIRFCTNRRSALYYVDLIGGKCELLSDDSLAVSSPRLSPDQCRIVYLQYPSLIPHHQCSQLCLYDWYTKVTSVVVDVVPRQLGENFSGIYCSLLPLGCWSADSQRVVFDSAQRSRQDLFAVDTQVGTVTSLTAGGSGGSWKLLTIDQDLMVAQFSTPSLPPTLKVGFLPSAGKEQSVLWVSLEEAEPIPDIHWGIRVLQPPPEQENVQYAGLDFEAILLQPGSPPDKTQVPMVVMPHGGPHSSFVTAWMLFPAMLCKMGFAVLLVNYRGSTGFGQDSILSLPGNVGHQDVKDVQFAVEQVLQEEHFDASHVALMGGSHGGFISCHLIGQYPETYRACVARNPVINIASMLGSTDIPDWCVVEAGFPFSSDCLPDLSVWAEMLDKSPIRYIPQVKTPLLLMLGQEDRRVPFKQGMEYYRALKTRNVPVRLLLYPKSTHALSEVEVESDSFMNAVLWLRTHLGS
# UniProt P52594: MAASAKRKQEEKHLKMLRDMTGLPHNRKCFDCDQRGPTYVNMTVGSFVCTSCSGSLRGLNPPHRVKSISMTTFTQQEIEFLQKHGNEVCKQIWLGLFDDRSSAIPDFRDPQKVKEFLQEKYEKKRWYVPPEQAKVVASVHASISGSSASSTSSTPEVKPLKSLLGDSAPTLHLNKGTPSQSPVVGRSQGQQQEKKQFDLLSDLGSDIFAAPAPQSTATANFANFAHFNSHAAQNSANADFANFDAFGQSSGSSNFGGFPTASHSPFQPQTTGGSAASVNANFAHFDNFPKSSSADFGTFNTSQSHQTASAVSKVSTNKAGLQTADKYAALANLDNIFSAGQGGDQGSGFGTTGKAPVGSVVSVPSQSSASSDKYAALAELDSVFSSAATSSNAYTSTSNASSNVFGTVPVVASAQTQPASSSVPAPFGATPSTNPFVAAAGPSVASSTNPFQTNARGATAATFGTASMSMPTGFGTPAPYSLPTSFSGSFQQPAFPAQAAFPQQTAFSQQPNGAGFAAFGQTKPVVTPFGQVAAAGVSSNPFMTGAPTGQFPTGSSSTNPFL
# UniProt Q8IV38: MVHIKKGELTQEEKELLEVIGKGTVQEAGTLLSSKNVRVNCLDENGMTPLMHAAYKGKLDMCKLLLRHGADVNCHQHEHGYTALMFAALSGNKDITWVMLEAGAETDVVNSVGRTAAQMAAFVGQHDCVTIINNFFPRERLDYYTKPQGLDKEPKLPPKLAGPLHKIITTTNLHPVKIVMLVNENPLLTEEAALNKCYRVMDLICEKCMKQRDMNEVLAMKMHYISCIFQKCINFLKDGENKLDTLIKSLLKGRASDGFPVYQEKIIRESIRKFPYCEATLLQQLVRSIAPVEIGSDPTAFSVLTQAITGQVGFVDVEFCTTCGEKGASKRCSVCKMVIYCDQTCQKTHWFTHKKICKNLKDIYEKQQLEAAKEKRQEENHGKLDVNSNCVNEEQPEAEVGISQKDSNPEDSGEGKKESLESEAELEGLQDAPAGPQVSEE
# UniProt P15289: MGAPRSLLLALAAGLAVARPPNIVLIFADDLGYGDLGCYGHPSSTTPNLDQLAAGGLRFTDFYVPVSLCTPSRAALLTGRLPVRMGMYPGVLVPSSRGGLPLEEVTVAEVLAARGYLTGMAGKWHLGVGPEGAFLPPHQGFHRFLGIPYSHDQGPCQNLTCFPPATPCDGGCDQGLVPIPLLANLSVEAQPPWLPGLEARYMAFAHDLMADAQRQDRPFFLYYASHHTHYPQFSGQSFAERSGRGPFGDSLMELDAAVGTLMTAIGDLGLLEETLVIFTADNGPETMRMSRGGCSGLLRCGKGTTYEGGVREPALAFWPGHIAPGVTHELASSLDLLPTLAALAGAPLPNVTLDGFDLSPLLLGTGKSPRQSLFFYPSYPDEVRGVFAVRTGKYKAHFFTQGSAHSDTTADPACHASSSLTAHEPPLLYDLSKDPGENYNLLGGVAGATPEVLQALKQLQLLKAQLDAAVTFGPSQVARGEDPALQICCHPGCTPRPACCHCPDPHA
# UniProt P09972: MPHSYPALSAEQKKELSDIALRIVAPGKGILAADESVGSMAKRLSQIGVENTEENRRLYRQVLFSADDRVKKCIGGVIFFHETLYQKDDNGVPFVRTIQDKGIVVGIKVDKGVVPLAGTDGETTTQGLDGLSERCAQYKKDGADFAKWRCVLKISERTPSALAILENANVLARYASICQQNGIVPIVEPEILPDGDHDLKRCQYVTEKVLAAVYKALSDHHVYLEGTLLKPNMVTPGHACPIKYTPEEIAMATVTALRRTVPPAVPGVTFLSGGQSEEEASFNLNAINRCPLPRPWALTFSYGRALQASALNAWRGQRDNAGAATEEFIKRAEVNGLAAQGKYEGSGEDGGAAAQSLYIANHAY
# UniProt Q8N5I2: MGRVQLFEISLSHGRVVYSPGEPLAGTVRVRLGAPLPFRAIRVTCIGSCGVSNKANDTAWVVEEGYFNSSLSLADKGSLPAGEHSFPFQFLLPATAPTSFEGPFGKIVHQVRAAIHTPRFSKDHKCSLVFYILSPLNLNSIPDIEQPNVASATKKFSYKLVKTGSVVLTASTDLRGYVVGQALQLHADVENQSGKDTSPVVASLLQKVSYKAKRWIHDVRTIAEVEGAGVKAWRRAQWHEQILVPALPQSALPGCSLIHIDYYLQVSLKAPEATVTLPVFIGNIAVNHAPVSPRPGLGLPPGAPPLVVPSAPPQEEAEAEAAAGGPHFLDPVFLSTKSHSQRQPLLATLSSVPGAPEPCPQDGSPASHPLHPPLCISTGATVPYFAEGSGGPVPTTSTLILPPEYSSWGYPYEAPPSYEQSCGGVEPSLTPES
# Compound: COc1ccc(Cn2ccc3cc(C)c(C(=O)NO)cc32)cc1
# Experiment: dose-dependent thermal stabilisation call (2D-TPP, DLPTP, 10% FDR) (binary (1 = stabilised)); higher = stabilised by the compound
# Settings: system: HL-60 intact cells; concentration range 0.04-10 µM
# Description: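 2D thermal proteome profiling in intact HL-60 cells treated with BRD-3811 (0, 0.04, 0.29, 2, 10 uM) for 90 min at 37 C, then heated 3 min at one of 12 temperatures (42-63.9 C). Soluble protein was quantified by TMT10 MS. The value is the DLPTP call of the paper: dose-dependent thermal stabilisation over all temperatures at 10% FDR (F-test of a dose-response against a flat model); one experiment, one call per tested protein.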
row,Target,dose-dependent thermal stabilisation call
1,ARFIP1 (UniProt P53367),inactive: 0
2,ARMC8 (UniProt Q8IUR7),inactive: 0
3,ARHGAP26 (UniProt Q9UNA1),inactive: 0
4,APEH (UniProt P13798),inactive: 0
5,AGFG1 (UniProt P52594),inactive: 0
6,ANKMY2 (UniProt Q8IV38),inactive: 0
7,ARSA (UniProt P15289),inactive: 0
8,ALDOC (UniProt P09972),inactive: 0
9,ARRDC1 (UniProt Q8N5I2),inactive: 0

# 2 entries picked at random from the list so far:
row,Target,dose-dependent thermal stabilisation call
1,ARFIP1 (UniProt P53367),inactive: 0
2,ARMC8 (UniProt Q8IUR7),inactive: 0

# Source: the supplement of paper PMC7666118
